Measurements: patent US20160367630A1
These are yes or no findings as the source states them, for the method shown. In cells and extracts the contact can be indirect. Some results given as binding are weak or reduced against the parent protein; the word gives no strength. One block for each binder: values may come before it.

How the values were obtained:
Dnm1p (budding yeast) [1] = target: T1, Dnm1p (budding yeast) (UniProt P54861); experiment: co-immunoprecipitation from extracts of wild type and cnc1 deletion yeast (Mdv1p-GFP, Dnm1p-myc)
T1 sequence (looked up): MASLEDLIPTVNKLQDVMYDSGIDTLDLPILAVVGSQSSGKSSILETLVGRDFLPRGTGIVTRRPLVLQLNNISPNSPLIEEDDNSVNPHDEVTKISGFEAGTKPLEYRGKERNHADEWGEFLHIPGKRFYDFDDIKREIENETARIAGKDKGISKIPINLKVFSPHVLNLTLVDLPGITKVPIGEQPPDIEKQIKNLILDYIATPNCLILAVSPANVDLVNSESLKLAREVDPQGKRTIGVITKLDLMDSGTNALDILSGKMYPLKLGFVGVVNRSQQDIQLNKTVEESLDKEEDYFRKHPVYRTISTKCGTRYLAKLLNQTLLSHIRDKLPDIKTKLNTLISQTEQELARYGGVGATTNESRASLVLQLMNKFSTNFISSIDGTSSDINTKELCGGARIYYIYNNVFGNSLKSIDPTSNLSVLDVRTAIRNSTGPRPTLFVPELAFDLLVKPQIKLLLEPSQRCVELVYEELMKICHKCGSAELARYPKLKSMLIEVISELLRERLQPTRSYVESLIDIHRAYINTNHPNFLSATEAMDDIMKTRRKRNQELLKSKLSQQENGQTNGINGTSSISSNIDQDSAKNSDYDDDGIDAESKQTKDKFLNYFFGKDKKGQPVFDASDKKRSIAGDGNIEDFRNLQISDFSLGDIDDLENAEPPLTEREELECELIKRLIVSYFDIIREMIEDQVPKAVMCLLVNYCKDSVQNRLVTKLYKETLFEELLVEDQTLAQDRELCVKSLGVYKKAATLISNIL

Dnm1p (budding yeast) [2] = target: T1, Dnm1p (budding yeast); experiment: co-immunoprecipitation from yeast extracts (Mdv1p-GFP, Dnm1p-myc), H2O2 stress
Mdv1p (budding yeast) [3] = target: T2, Mdv1p (budding yeast) (UniProt P47025); experiment: co-immunoprecipitation from yeast extracts (cyclin C-TAP, Mdv1p-HA), H2O2 stress timecourse
T2 sequence (looked up): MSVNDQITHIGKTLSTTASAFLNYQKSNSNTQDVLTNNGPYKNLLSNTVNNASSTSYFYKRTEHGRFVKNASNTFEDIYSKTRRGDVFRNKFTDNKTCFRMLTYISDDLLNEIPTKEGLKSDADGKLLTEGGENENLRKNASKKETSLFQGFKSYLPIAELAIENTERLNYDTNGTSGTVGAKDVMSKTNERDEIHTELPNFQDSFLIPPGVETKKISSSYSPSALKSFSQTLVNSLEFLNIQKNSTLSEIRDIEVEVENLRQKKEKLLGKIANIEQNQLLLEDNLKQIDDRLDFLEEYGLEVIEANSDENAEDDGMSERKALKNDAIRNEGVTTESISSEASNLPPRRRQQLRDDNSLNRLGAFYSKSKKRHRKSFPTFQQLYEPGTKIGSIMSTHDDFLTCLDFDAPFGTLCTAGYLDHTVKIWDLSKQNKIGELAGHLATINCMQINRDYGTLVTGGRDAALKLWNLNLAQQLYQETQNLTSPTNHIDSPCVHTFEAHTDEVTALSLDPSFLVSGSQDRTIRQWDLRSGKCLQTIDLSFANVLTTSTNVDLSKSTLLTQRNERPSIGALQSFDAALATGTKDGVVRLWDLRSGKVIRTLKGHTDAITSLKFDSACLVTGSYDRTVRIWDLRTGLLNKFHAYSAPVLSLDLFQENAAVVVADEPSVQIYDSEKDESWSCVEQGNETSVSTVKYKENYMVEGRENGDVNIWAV

Mdv1p (budding yeast) [4] = target: T2, Mdv1p (budding yeast); experiment: summary of the yeast experiments (co-localisation, two-hybrid, co-immunoprecipitation)
Mdv1p (budding yeast) [5] = target: T2, Mdv1p (budding yeast); experiment: co-localisation, yeast two-hybrid and co-immunoprecipitation (FIG. 6)

binding (Dnm1p (budding yeast) [1]): binds | binding (Dnm1p (budding yeast) [2]): binds
B1: Mdv1p (protein, budding yeast, UniProt P47025 1-714, looked up)
chain: T2 sequence (looked up)

binding (Mdv1p (budding yeast) [3]): binds | binding (Mdv1p (budding yeast) [4]): binds | binding (Mdv1p (budding yeast) [5]): binds
B2: cyclin C (yeast; CNC1 gene product) (protein, budding yeast, UniProt P47821 1-323, looked up)
chain: MSGSFWTSTQRHHWQYTKASLAKERQKLWLLECQLFPQGLNIVMDSKQNGIEQSITKNIPITHRDLHYDKDYNLRIYCYFLIMKLGRRLNIRQYALATAHIYLSRFLIKASVREINLYMLVTTCVYLACKVEECPQYIRTLVSEARTLWPEFIPPDPTKVTEFEFYLLEELESYLIVHHPYQSLKQIVQVLKQPPFQITLSSDDLQNCWSLINDSYINDVHLLYPPHIIAVACLFITISIHGKPTKGSSLASAASEAIRDPKNSSSPVQIAFNRFMAESLVDLEEVMDTIQEQITLYDHWDKYHEQWIKFLLHTLYLRPASAI
